According to article PMC6232491:

Assays:
[1] = target: TuMV VPg in the membrane yeast two-hybrid (Turnip mosaic virus); assay: two-hybrid; membrane yeast two-hybrid (mYTH) of AtDRP2A with each of 11 TuMV-encoded proteins; bait and prey not stated
[2] = target: TuMV CP in the membrane yeast two-hybrid (Turnip mosaic virus); assay: as above
[3] = target: TuMV CI in the membrane yeast two-hybrid (Turnip mosaic virus); assay: as above
[4] = target: TuMV P1 in the membrane yeast two-hybrid (Turnip mosaic virus); assay: as above
[5] = target: TuMV 6K2 in the membrane yeast two-hybrid (Turnip mosaic virus); assay: as above
[6] = target: TuMV VPg with a 3× flag tag (Turnip mosaic virus); assay: co-IP; TuMV proteins with C-terminal 3x flag and N-terminal YFP-AtDRP2A coexpressed in N. benthamiana leaves, 2.5 days postinfiltration; anti-Flag M2 affinity gel; blots with anti-Flag or anti-GFP
[7] = target: TuMV 6K2 with a 3× flag tag (Turnip mosaic virus); assay: as above
[8] = target: TuMV CP with a 3× flag tag (Turnip mosaic virus); assay: as above
[9] = target: TuMV CI with a 3× flag tag (Turnip mosaic virus); assay: as above
[10] = target: SMV CI, bait of the split-ubiquitin membrane yeast two-hybrid (Soybean mosaic virus (SMV-L)); assay: two-hybrid; split-ubiquitin membrane-based yeast two-hybrid, NMY51; SMV proteins as baits (pBT3-STE), GmSDL5A as prey (pPR3-N); medium lacking Leu, Trp, His and Ade, with 3AT
[11] = target: SMV CP, bait of the split-ubiquitin membrane yeast two-hybrid (Soybean mosaic virus (SMV-L)); assay: as above
[12] = target: SMV 6K2, bait of the split-ubiquitin membrane yeast two-hybrid (Soybean mosaic virus (SMV-L)); assay: as above
[13] = target: SMV VPg, bait of the split-ubiquitin membrane yeast two-hybrid (Soybean mosaic virus (SMV-L)); assay: as above
[14] = target: SMV P1, bait of the split-ubiquitin membrane yeast two-hybrid (Soybean mosaic virus (SMV-L)); assay: as above
[15] = target: SMV NIb, bait of the split-ubiquitin membrane yeast two-hybrid (Soybean mosaic virus (SMV-L)); assay: as above
[16] = target: SMV P3, bait of the split-ubiquitin membrane yeast two-hybrid (Soybean mosaic virus (SMV-L)); assay: as above
[17] = target: SMV P3N-PIPO, bait of the split-ubiquitin membrane yeast two-hybrid (Soybean mosaic virus (SMV-L)); assay: as above
[18] = target: SMV 6K1, bait of the split-ubiquitin membrane yeast two-hybrid (Soybean mosaic virus (SMV-L)); assay: as above
[19] = target: SMV NIa-Pro, bait of the split-ubiquitin membrane yeast two-hybrid (Soybean mosaic virus (SMV-L)); assay: as above
[20] = target: SMV HC-Pro, bait of the split-ubiquitin membrane yeast two-hybrid (Soybean mosaic virus (SMV-L)); assay: as above

B1: AtDRP2A in the membrane yeast two-hybrid (protein, UniProt Q9SE83 1-914)
chain: MEAIDELSQLSDSMKQAASLLADEDPDETSSSKRPATFLNVVALGNVGAGKSAVLNSLIGHPVLPTGENGATRAPIIIELSRESSLSSKAIILQIDNKSQQVSASALRHSLQDRLSKGASGKNRDEINLKLRTSTAPPLKLVDLPGLDQRIVDESMIAEYAQHNDAILLVIVPASQASEISSSRALKIAKEYDPESTRTIGIIGKIDQAAENSKALAAVQALLSNQGPPKTTDIPWVAVIGQSVSIASAQSGSGENSLETAWRAESESLKSILTGAPQSKLGRIALVDTLASQIRSRMKLRLPSVLSGLQGKSQIVQDELARLGEQLVNSAEGTRAIALELCREFEDKFLLHLAGGEGSGWKVVASFEGNFPNRIKQLPLDRHFDLNNVKRVVLEADGYQPYLISPEKGLRSLIKIVLELAKDPARLCVDEVHRVLVDIVSASANATPGLGRYPPFKREVVAIASAALDGFKNEAKKMVVALVDMERAFVPPQHFIRLVQRRMERQRREEELKGRSSKKGQDAEQSLLSRATSPQPDGPTAGGSLKSMKDKPSPQDKETPEVSGLKTAGPEGEITAGYLMKKSAKTNGWSRRWFVLNEKTGKLGYTKKQEERNFRGTITLEECTIEEIPEDEVEKSKSSKDKKANGPDSKGPGLVFKITCKVPYKTVLKAHNALVLKAESVVDKNEWINKLQKVIQARGGQVGSVSMRQSLSEGSLDKMVRKPIDPEEELRWMSQEVRGYVEAVLNSLAANVPKAVVLCQVEKAKEDMLNQLYSSISAIGNERIESLIQEDQNVKRRRERYQKQSSLLSKLTRQLSIHDNRAAAASSYSDNSGTESSPRASGGSSGDDWMNAFNSAANGPSDSLSKYGSGGHSRRYSDPAQNGDAASPGSGSNRRTTPNRLPPAPPPTGSAYRY
Question: Which binding [1] does the source give for B1 here?
Answer: binds

Question: And the binding [2]?
Answer: binds

Question: What about the binding [3] of the same binder?
Answer: binds

Question: What about the binding [4] of the same binder?
Answer: binds

Question: And the binding [5]?
Answer: binds

B2: YFP-AtDRP2A (protein, UniProt Q9SE83 1-914)
chain: B1 chain
Question: How did the binding [6] turn out when B2 was run?
Answer: binds

Question: What about the binding [7] of the same binder?
Answer: binds

Question: What about the binding [8] of the same binder?
Answer: binds

Question: What about the binding [9] of the same binder?
Answer: binds

B3: GmSDL5A, prey of the split-ubiquitin membrane yeast two-hybrid (protein, UniProt Q39828 1-610)
chain: MENLISLVNKIQRACTALGDHGENSALPTLWDSLPAIAVVGGQSSGKSSVLESVVGKDFLPRGSGIVTRRPLVLQLHKIEEGSREYAEFLHLPRKRFTDFVAVRKEIQDETDRETGRTKQISTVPIHLSIYSPNVVNLTLVDLPGLTKVAVEGQPDSIVKDIEDMVRSYIEKPNCIILAISPANQDLATSDAIKISREVDPTGDRTIGVLTKIDLMDKGTDAVDILEGRAYRLKFPWIGVVNRSQQDINKNVDMIAARRREREYFNSTPEYKHLANRMGSEHLAKMLSKHLETVIKSKIPGIQSLINKTIAELEAELTRLGKPVAADAGGKLYAIMEICRSFDQIFKDHLDGVRPGGDKIYNVFDNQLPAALKRLQFDKQLSMENIRKLITEADGYQPHLIAPEQGYRRLIESSLITIRGPAEAAVDAVHSLLKDLVHKAISETLDLKQYPGLRVEVGAAAVDSLERMRDESKRATLQLVDMECGYLTVDFFRKLPQDVDKGGNPTHSIFDRYNDSYLRRIGTTILSYVNMVCATLRNSIPKSIVYCQVREAKRSLLDHFFTELGKMETKRLSSLLNEDPAIMERRSALAKRLELYRSAQAEIDAVAWSK
Question: Which results are given for B3?
Answer: binding [10]: binds; binding [11]: binds; binding [12]: no binding; binding [13]: binds; binding [14]: no binding; binding [15]: no binding; binding [16]: no binding; binding [17]: no binding; binding [18]: no binding; binding [19]: no binding; binding [20]: no binding

These are yes or no findings as the source states them, for the method shown. For some assays here: A result given as binding can be weak or reduced; the word gives no strength. For some assays here: In cells and extracts the contact can be indirect. For some assays here: Tags and fused reporters may be left off the sequences shown.
